Assay results taken from US7288256B1 (Merck Patent GmbH, priority 1991, dated 2007).
No end group written: not given here.

Assay: peptide synthesis
Details: whole synthesis

DKQLEAVFEANQNTKTAKIEIKASIDE
difficulty met: it was very difficult to synthesize
